According to PubChem BioAssay AID248 (DTP/NCI, 2004):
The list shows only some results of the screen, not a fair sample: it is rich in T/C values a quarter to a half above the control, in often repeated tests (any T/C) and in doses without a T/C. Further doses and runs are listed elsewhere. T/C is the treated group as % of the vehicle group. Some doses have a count of surviving animals in place of a T/C: the source files T/C as zero there, which appears to mark a toxic dose or a test without result, not a measured value. Some doses without a T/C left all or most animals alive at the check, yet need not have been tolerated: survival well below the control is almost never listed, so the zero probably covers shortened survival too. Survivors were counted at the toxicity check, usually on the fifth day, unless a day is given; later deaths do not show. Schedule codes are those of the source, read here as Q, the interval in days (D) or hours (H), X, the number of doses. Some schedules carry Z or #; the key to these is not given. For survival time, this PubChem deposit counts one and a half times the control or more as active, and values a quarter to a half above the control carry no call in these data; other NCI protocols may use other cut-offs. Some entries were tested several times; the values are given in rising order.

System: L1210 leukemia ip in BDF1 mice, survival T/C
Experiment: NCI In Vivo Anticancer Drug Screen. Data for tumor model L1210 Leukemia (intraperitoneal) in B6D2F1 (BDF1) mice
Settings: T/C endpoint: mean survival time, higher T/C = longer survival
[1] = dose: 200.0 mg/kg/injection, schedule: Q04DX003 (ip), vehicle: Klucel (hydroxypropylcellulose) (HPC)
[2] = dose: 400.0 mg/kg/injection, schedule: Q04DX003 (ip), vehicle: Klucel (hydroxypropylcellulose) (HPC)
[3] = dose: 100.0 mg/kg/injection, schedule: Q04DX003 (ip), vehicle: saline
[4] = dose: 200.0 mg/kg/injection, schedule: Q04DX003 (ip), vehicle: saline
[5] = dose: 400.0 mg/kg/injection, schedule: Q04DX003 (ip), vehicle: saline
[6] = dose: 400.0 mg/kg/injection, schedule: Q01DX009 (ip), vehicle: saline with Tween-80
[7] = dose: 200.0 mg/kg/injection, schedule: Q01DX001 (ip), vehicle: saline
[8] = dose: 400.0 mg/kg/injection, schedule: Q01DX001 (ip), vehicle: saline
[9] = dose: 200.0 mg/kg/injection, schedule: Q01DX009 (ip), vehicle: Klucel (hydroxypropylcellulose) (HPC)
[10] = dose: 400.0 mg/kg/injection, schedule: Q01DX009 (ip), vehicle: Klucel (hydroxypropylcellulose) (HPC)
[11] = dose: 75.0 mg/kg/injection, schedule: Q01DX001 (ip), vehicle: saline
[12] = dose: 150.0 mg/kg/injection, schedule: Q01DX001 (ip), vehicle: saline
[13] = dose: 300.0 mg/kg/injection, schedule: Q01DX001 (ip), vehicle: saline
[14] = dose: 50.0 mg/kg/injection, schedule: Q04DX003 (ip), vehicle: saline

For `CCOC(=O)CNc1ccc(F)c(Cl)c1`, which T/C (dose: 400.0 mg/kg/injection, schedule: Q04DX002 (ip), vehicle: Klucel (hydroxypropylcellulose) (HPC)) is on record?
The T/C was 134 % of control.

What does the source list for `OC(CNCCc1ccccc1)COc1cccc2ccccc12` (configuration not stated)?
survivor count (dose: 100.0 mg/kg/injection, schedule: Q04DX003 (ip), vehicle: Klucel (hydroxypropylcellulose) (HPC)): 2 of 6; survivor count [1]: 0 of 6; survivor count [2]: 0 of 6

For `CCCCCCCCN(N)C12CC3CC(CC(C3)C1)C2`, which survivor count [3] is on record?
The survivor count was 6 of 6.

And the survivor count [4]?
The survivor count was 0 of 6.

And the survivor count [5]?
The survivor count was 0 of 6.

Which survivor count [6] does the source give for `COc1cc(NC(C)=O)c2ncccc2c1` here?
Its survivor count is 4 of 6.

With `OCCN1CCN(CC/C=C2/c3ccccc3Sc3ccc(Cl)cc32)CC1` as the compound, how does the T/C (dose: 13.5 mg/kg/injection, schedule: Q01DX015 (ip), vehicle: saline) read?
The T/C was 127 % of control.

And the T/C (dose: 22.5 mg/kg/injection, schedule: Q01DX015 (ip), vehicle: saline)?
Its T/C is 133 % of control.

And the T/C (dose: 25.0 mg/kg/injection, schedule: Q01DX001 (ip), vehicle: saline)?
Its T/C is 127 % of control.

What about the T/C (dose: 37.5 mg/kg/injection, schedule: Q01DX001 (ip), vehicle: saline) of the same compound?
The T/C was 127 % of control.

What about the survivor count (dose: 37.5 mg/kg/injection, schedule: Q01DX015 (ip), vehicle: saline) of the same compound?
The survivor count was 3 of 6.

And the T/C (dose: 50.0 mg/kg/injection, schedule: Q01DX001 (ip), vehicle: saline)?
The T/C was 125 and 130 % of control.

What about the survivor count (dose: 50.0 mg/kg/injection, schedule: Q01DX009 (ip), vehicle: saline) of the same compound?
Its survivor count is 3 of 6.

And the survivor count [3]?
Its survivor count is 4 of 6.

What about the survivor count [7] of the same compound?
Its survivor count is 0 of 6.

What about the survivor count [8] of the same compound?
Its survivor count is 0 of 6.

With `S=c1ssc2ccccc12` as the compound, how does the survivor count [8] read?
The survivor count was 6 of 6.

How did the survivor count (dose: 14.0 mg/kg/injection, schedule: Q01DX Z (ip), vehicle: water) turn out when `CCN=C(NCC)c1ccc(NC(=O)Nc2ccc(NC(=O)Nc3ccc(C(=NCC)NCC)cc3)cc2)cc1` was run?
The survivor count was 0 of 6.

What about the survivor count (dose: 28.0 mg/kg/injection, schedule: Q01DX Z (ip), vehicle: water) of the same compound?
Its survivor count is 0 of 6.

What about the survivor count (dose: 56.0 mg/kg/injection, schedule: Q01DX Z (ip), vehicle: water) of the same compound?
Its survivor count is 0 of 6.

What about the survivor count (dose: 112.0 mg/kg/injection, schedule: Q01DX Z (ip), vehicle: water) of the same compound?
The survivor count was 0 of 6.

How did the survivor count [4] turn out when `[Cl][Co][Cl].[NH-]CCC[NH-].[NH-]CCC[NH-]` was run?
Its survivor count is 1 of 6.

And the survivor count [5]?
The survivor count was 0 of 6.

For `COc1ccc(C(=O)N/N=C/c2c(Cl)cccc2Cl)cc1`, which survivor count [9] is on record?
Its survivor count is 0 of 6.

And the survivor count [10]?
Its survivor count is 0 of 6.

Which survivor count (dose: 10.0 mg/kg/injection, schedule: Q04DX003 (ip), vehicle: saline) does the source give for `c1ccc2c(c1)ccc1c[n+]3c4ccccc4ccc3n12` here?
Its survivor count is 6 of 6.

What about the survivor count (dose: 20.0 mg/kg/injection, schedule: Q04DX003 (ip), vehicle: saline) of the same compound?
Its survivor count is 6 of 6.

What about the survivor count (dose: 40.0 mg/kg/injection, schedule: Q01DX001 (ip), vehicle: saline) of the same compound?
Its survivor count is 2 of 6.

What about the survivor count [11] of the same compound?
The survivor count was 0 of 6.

And the survivor count [12]?
Its survivor count is 0 of 6.

And the survivor count [13]?
Its survivor count is 0 of 6.

With `CC[C@@H](O)C[C@H]1CCC[C@@]2(C[C@@H]3OC(=O)/C=C/[C@@](C)(O)[C@@H](O)[C@H](C)[C@@H](O)[C@H](OC4CCC(N(C)C)C(C)O4)[C@@H](O)[C@](C)(O)CCCCC/C=C/[C@@H]4CC(C)(C)O[C@@]4(O)C[C@H](O2)[C@H]3C)O1` (some centres not stated) as the compound, how does the survivor count (dose: 0.25 mg/kg/injection, schedule: Q01DX009 (ip), vehicle: saline with Tween-80) read?
The survivor count was 0 of 6.

And the survivor count (dose: 0.5 mg/kg/injection, schedule: Q01DX009 (ip), vehicle: saline with Tween-80)?
The survivor count was 0 of 6.

What about the survivor count (dose: 1.0 mg/kg/injection, schedule: Q01DX009 (ip), vehicle: saline with Tween-80) of the same compound?
The survivor count was 0 of 6.

What about the survivor count (dose: 1.45 mg/kg/injection, schedule: Q04DX003 (ip), vehicle: saline with Tween-80) of the same compound?
The survivor count was 5 of 6.

And the survivor count (dose: 2.2 mg/kg/injection, schedule: Q04DX003 (ip), vehicle: saline with Tween-80)?
Its survivor count is 0 of 6.

And the survivor count (dose: 3.3 mg/kg/injection, schedule: Q04DX003 (ip), vehicle: saline with Tween-80)?
Its survivor count is 0 of 6.

With `O=C(NNCc1ccccc1)c1ccccn1` as the compound, how does the survivor count [9] read?
The survivor count was 0 of 6.

Which results are given for `ClC(Cl)(Cl)C/C=C\CBr`?
survivor count (dose: 150.0 mg/kg/injection, schedule: Q01DX009 (ip), vehicle: acetone): 2 of 6; survivor count (dose: 200.0 mg/kg/injection, schedule: Q04DX003 (ip), vehicle: acetone): 6 of 6; survivor count (dose: 225.0 mg/kg/injection, schedule: Q01DX009 (ip), vehicle: acetone): 0 of 6; survivor count (dose: 335.0 mg/kg/injection, schedule: Q01DX009 (ip), vehicle: acetone): 0 of 6; survivor count (dose: 400.0 mg/kg/injection, schedule: Q01DX001 (ip), vehicle: acetone): 0 of 6

Which survivor count [11] does the source give for `O=[N+]([O-])c1cc(/C=N\N=C\c2ccco2)ccc1Cl` here?
Its survivor count is 6 of 6.

What about the survivor count [12] of the same compound?
The survivor count was 6 of 6.

What about the survivor count [13] of the same compound?
The survivor count was 6 of 6.

For `CC(C)(C)C1CCC(NC(=O)C(Cl)Cl)CC1` (configuration not stated), which survivor count [1] is on record?
The survivor count was 0 of 6.

What about the survivor count [2] of the same compound?
Its survivor count is 0 of 6.

Which survivor count [14] does the source give for `Cc1cccc2nc(-c3ccccc3)ccc12` here?
Its survivor count is 2 of 6.

What about the survivor count [3] of the same compound?
Its survivor count is 0 of 6.

And the survivor count [4]?
The survivor count was 0 of 6.

What about the survivor count [5] of the same compound?
Its survivor count is 0 of 6.

For `CSc1n[nH]c(=O)nc1SC`, which survivor count [8] is on record?
Its survivor count is 2 of 6.

Which survivor count [6] does the source give for `Cc1nc(-c2ccc(N=Cc3ccc(N(CCCOS(C)(=O)=O)CCCOS(C)(=O)=O)cc3C)cc2)c(C)s1` here?
Its survivor count is 3 of 6.

Which results are given for `CCOC(=O)c1ccc(NC(=O)Nc2cccc(Cl)c2)cc1`?
survivor count (dose: 50.0 mg/kg/injection, schedule: Q01DX009 (ip), vehicle: Klucel (hydroxypropylcellulose) (HPC)): 3 of 6; survivor count (dose: 100.0 mg/kg/injection, schedule: Q01DX009 (ip), vehicle: Klucel (hydroxypropylcellulose) (HPC)): 0 of 6; survivor count [9]: 6 of 6; survivor count [10]: 0 of 6

Which survivor count (dose: 12.0 mg/kg/injection, schedule: Q01DX009 (ip), vehicle: saline) does the source give for `Cc1cc(C[P+](c2ccccc2)(c2ccccc2)c2ccccc2)c(C[P+](c2ccccc2)(c2ccccc2)c2ccccc2)cc1C` here?
The survivor count was 1 of 6.

And the survivor count (dose: 12.5 mg/kg/injection, schedule: Q04DX003 (ip), vehicle: saline)?
The survivor count was 2 of 6.

And the survivor count (dose: 25.0 mg/kg/injection, schedule: Q04DX003 (ip), vehicle: saline)?
Its survivor count is 0 of 6.

What about the survivor count [14] of the same compound?
The survivor count was 0 of 6.

What about the survivor count [3] of the same compound?
The survivor count was 0 of 6.

And the survivor count [4]?
The survivor count was 0 of 6.

And the survivor count [5]?
The survivor count was 0 of 6.

For `CCCC(O)Cc1c[nH]c(=O)[nH]c1=O` (configuration not stated), which survivor count (dose: 200.0 mg/kg/injection, schedule: Q01DX009 (ip), vehicle: saline with Tween-80) is on record?
Its survivor count is 3 of 6.

What about the survivor count (dose: 400.0 mg/kg/injection, schedule: Q04DX003 (ip), vehicle: saline with Tween-80) of the same compound?
The survivor count was 2 of 6.

With `COCCNC(=O)N(CCOC)N=O` as the compound, how does the T/C (dose: 375.0 mg/kg/injection, schedule: Q01DX001 (ip), vehicle: saline) read?
Its T/C is 145 % of control.

What about the survivor count (dose: 750.0 mg/kg/injection, schedule: Q01DX001 (ip), vehicle: saline) of the same compound?
Its survivor count is 1 of 6.

For `CC(=O)c1ccccc1N1CCCCC1`, which survivor count (dose: 400.0 mg/kg/injection, schedule: Q04DX002 (ip), vehicle: saline) is on record?
Its survivor count is 0 of 3.

How did the T/C [6] turn out when `CC(=O)NNC(=O)c1ccccc1` was run?
The T/C was 127 % of control.

And the survivor count (dose: 400.0 mg/kg/injection, schedule: Q01DX009 (ip), vehicle: saline)?
The survivor count was 4 of 6.

With `CCC1C(CC(=O)O)=C(C)NC(C)=C1CC(=O)O` as the compound, how does the survivor count [10] read?
Its survivor count is 1 of 6.

Which survivor count [7] does the source give for `CC(C)(C)OC(=O)CC1(C)CCC2C1C(=O)OC2(C)C` (configuration not stated) here?
Its survivor count is 2 of 6.

And the survivor count [8]?
Its survivor count is 0 of 6.

`CCCCCCCCCCCCCCOS(=O)(=O)O` was tested. Which survivor count [13] did it give?
Its survivor count is 0 of 6.

How did the survivor count [7] turn out when `CCOC(=O)c1c(C)[nH]c2c1C(=O)C(=O)C=C2` was run?
The survivor count was 1 of 4.

What about the survivor count [8] of the same compound?
Its survivor count is 0 of 4.

What does the source list for `[Cl][Pd]([Cl])([Cl])[Cl]`?
survivor count [4]: 1 of 3; survivor count [5]: 0 of 3
